Experimental data published in paper PMC3877284.

Legend:
[1] = biological target: T1, flotillin-2 (human (endogenous in MCF10A, MCF7, HaCaT, Hep3B, HeLa)) (UniProt Q14254); test: co-IP; IP with flotillin-1 or flotillin-2 antibodies from MCF7, HaCaT, Hep3B and HeLa lysates; 750 µg total protein
T1 sequence: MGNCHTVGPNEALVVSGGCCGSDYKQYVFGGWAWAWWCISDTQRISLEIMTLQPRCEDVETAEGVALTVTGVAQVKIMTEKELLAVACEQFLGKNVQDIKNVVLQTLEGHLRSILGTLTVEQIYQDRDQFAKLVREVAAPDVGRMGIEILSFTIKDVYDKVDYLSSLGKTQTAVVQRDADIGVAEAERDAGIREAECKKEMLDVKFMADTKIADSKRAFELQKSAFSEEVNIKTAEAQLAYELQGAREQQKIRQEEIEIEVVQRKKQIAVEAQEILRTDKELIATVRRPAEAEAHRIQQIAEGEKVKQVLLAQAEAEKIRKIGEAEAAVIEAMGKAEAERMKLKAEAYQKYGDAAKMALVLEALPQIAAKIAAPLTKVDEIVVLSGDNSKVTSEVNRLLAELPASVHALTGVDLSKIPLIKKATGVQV

[2] = biological target: T2, flotillin-1 (human (endogenous in MCF10A, MCF7, HaCaT, Hep3B, HeLa)) (UniProt O75955); test: as above
T2 sequence: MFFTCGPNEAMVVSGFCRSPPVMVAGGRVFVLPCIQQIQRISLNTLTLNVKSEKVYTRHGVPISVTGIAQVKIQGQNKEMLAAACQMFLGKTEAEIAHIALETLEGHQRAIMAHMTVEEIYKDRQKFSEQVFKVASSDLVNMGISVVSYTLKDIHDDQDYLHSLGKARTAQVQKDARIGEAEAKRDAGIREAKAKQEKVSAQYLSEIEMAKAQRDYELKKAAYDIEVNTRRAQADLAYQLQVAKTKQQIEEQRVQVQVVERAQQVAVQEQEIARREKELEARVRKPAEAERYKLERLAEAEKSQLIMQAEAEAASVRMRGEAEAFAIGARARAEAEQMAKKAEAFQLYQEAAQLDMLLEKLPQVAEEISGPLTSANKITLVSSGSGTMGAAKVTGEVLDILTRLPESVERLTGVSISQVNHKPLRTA

[3] = biological target: T1, flotillin-2 (human (endogenous in MCF10A, MCF7, HaCaT, Hep3B, HeLa)); test: co-IP; IP with polyclonal flotillin-1 or flotillin-2 antibody on Dynabeads protein A from lysate of MCF10A cells grown confluent for 5 days; 750 µg total protein; 10 mM Tris-HCl pH 8.0, 150 mM NaCl, 5 mM EDTA, 0.5% Triton X-100, 60 mM N-octylglucoside
[4] = biological target: T2, flotillin-1 (human (endogenous in MCF10A, MCF7, HaCaT, Hep3B, HeLa)); test: as above
[5] = biological target: T3, γ-catenin (human (endogenous in MCF10A, MCF7, HaCaT, Hep3B, HeLa)) (UniProt P14923); test: co-IP; IP with an antibody against γ-catenin; 750 µg total protein
T3 sequence: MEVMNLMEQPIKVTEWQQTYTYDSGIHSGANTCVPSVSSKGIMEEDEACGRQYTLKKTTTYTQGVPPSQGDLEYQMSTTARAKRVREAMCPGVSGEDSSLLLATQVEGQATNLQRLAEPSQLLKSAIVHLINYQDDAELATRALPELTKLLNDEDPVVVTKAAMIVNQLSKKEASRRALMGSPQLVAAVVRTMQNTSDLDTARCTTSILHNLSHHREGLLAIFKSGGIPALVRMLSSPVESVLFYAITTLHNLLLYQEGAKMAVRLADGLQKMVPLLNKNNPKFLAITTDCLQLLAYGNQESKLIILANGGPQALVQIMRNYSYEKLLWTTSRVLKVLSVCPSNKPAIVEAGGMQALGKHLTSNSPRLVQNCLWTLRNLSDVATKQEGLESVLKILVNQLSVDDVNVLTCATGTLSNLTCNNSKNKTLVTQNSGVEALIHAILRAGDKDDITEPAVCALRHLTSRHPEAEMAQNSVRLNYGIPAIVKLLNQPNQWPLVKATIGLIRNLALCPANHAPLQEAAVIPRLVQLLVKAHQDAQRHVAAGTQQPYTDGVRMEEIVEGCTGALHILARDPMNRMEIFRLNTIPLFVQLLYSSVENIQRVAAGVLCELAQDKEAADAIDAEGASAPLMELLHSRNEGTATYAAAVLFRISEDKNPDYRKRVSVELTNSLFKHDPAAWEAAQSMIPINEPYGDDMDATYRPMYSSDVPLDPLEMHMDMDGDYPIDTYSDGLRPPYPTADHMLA

Question: Which results are given for E-cadherin?
Answer: binding [1]: binds; binding [2]: no binding; binding [3]: binds; binding [4]: no binding; binding [5]: binds

Results are given in words; binding and its absence hold for the method and conditions named. Binding seen in cells or lysates may run through a third protein. For some assays here: A result given as binding can be weak or reduced; the word gives no strength.
